Values from PubChem BioAssay AID1224831 (NIAID, 2016)
The deposit covers about 3,500 reagents; this is a part drawn at random. In the full data, 731 (21%) were called active. 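Active means either lowered or raised reporter signal; the gene-median score did not drive the per-siRNA calls.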 Entries without a mark were called inactive. The numbers tell different reagents against one gene apart.

- Screen: 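Genes that support or restrain LPS-induced TNF-alpha reporter activity in macrophage-like cells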 (follow-up of hits)
- Cell system: human THP-1 B5 monocytic leukaemia cells carrying a TNF promoter luciferase reporter, made macrophage-like with PMA
- Reagent: single siRNA against human genes, 50 nM
- Duration: about 68 h of knock-down, then 4 h LPS
- Challenge: LPS (Salmonella minnesota, TLR-grade) at 10 ng/ml for 4 h; PMA 5 ng/ml present during knock-down
- Detection: 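Firefly to renilla luciferase ratio of a TNF promoter reporter after 4 h LPS, scaled to plate median, turned into robust z-score, averaged over replicates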
- Reading the numbers: TNF reporter z-score: higher = stronger LPS-induced TNF reporter signal; z-score, median over gene's siRNAs: higher = stronger TNF reporter signal across the gene's siRNAs
- Rule for the call: 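Two-sided call: reduced or raised TNF reporter signal counts as active once mean z reaches about -1 or below, or about 1.5 or above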
- Meaning of the calls: active = changed TNF reporter (either direction); inactive = little change

The first 12 entries as a preview:
target gene	reagent	TNF reporter z-score, replicate mean	z-score, median over gene's siRNAs
PICK1	1	1.21	0.265
PICK1	2	0.05	0.265
PICK1	3	-1.53 (active)	0.265
PICK1	4	0.93	0.265
PICK1	5	-0.04	0.265
PICK1	6	0.48	0.265
MIDEAS	1	-1.95 (active)	-1.77
MIDEAS	2	-1.95 (active)	-1.77
MIDEAS	3	-2.12 (active)	-1.77
MIDEAS	4	-1.6 (active)	-1.77
MIDEAS	5	-0.01	-1.77
MIDEAS	6	-0.48	-1.77

The list itself, repeating the preview:
target gene	reagent	TNF reporter z-score, replicate mean	z-score, median over gene's siRNAs
PICK1	1	1.21	0.265
PICK1	2	0.05	0.265
PICK1	3	-1.53 (active)	0.265
PICK1	4	0.93	0.265
PICK1	5	-0.04	0.265
PICK1	6	0.48	0.265
MIDEAS	1	-1.95 (active)	-1.77
MIDEAS	2	-1.95 (active)	-1.77
MIDEAS	3	-2.12 (active)	-1.77
MIDEAS	4	-1.6 (active)	-1.77
MIDEAS	5	-0.01	-1.77
MIDEAS	6	-0.48	-1.77
CPA3	1	2.29 (active)	0.455
CPA3	2	0.5	0.455
CPA3	3	-1.18 (active)	0.455
CPA3	4	0.41	0.455
CPA3	5	4.87 (active)	0.455
CPA3	6	0.16	0.455
IAH1	1	0.01	-0.48
IAH1	2	-0.65	-0.48
IAH1	3	0.09	-0.48
IAH1	4	-0.51	-0.48
IAH1	5	-0.45	-0.48
IAH1	6	-0.81	-0.48
ZBTB40	1	-1.08 (active)	-0.28
ZBTB40	2	-1.6 (active)	-0.28
ZBTB40	3	0.77	-0.28
ZBTB40	4	-0.24	-0.28
ZBTB40	5	1.18	-0.28
ZBTB40	6	-0.32	-0.28
IQCF3	1	-0.22	0.23
IQCF3	2	0.68	0.23
IQCF3	3	-1.09 (active)	0.23
IQCF3	4	-0.38	0.23
IQCF3	5	1.75 (active)	0.23
IQCF3	6	1.24	0.23
CETN3	1	0.86	0.235
CETN3	2	0.43	0.235
CETN3	3	-0.11	0.235
CETN3	4	1.39	0.235
CETN3	5	0.04	0.235
CETN3	6	-0.21	0.235
NLRC4	1	3.14 (active)	1.6
NLRC4	2	1.69 (active)	1.6
NLRC4	3	0.89	1.6
NLRC4	4	1.19	1.6
NLRC4	5	4.79 (active)	1.6
NLRC4	6	1.51 (active)	1.6
ZNF343	1	0.39	0.745
ZNF343	2	1.2	0.745
ZNF343	3	0.21	0.745
ZNF343	4	2.33 (active)	0.745
ZNF343	5	-0.21	0.745
ZNF343	6	1.1	0.745
DNAJC25-GNG10	1	0.09	0.005
DNAJC25-GNG10	2	0.24	0.005
DNAJC25-GNG10	3	-0.08	0.005
DNAJC25-GNG10	4	1.27	0.005
DNAJC25-GNG10	5	-0.12	0.005
DNAJC25-GNG10	6	-0.09	0.005
SCN1B	1	-0.3	1.29
SCN1B	2	1.18	1.29
SCN1B	3	2.01 (active)	1.29
SCN1B	4	1.41	1.29
SCN1B	5	-0.48	1.29
SCN1B	6	2.82 (active)	1.29
HOXA6	1	0.19	0.52
HOXA6	2	2.67 (active)	0.52
HOXA6	3	2.39 (active)	0.52
HOXA6	4	-1.26 (active)	0.52
HOXA6	5	0.85	0.52
HOXA6	6	-1.35 (active)	0.52
SLC6A14	1	0.33	0.28
SLC6A14	2	1.5 (active)	0.28
SLC6A14	3	0.28	0.28
SLC6A14	4	-0.14	0.28
SLC6A14	5	-1.21 (active)	0.28
SLC6A14	6	0.28	0.28
RPAP3	1	0.83	0.785
RPAP3	2	0.74	0.785
RPAP3	3	0.51	0.785
RPAP3	4	0.93	0.785
RPAP3	5	-0.18	0.785
RPAP3	6	0.91	0.785
PDE2A	1	0.79	0.005
PDE2A	2	-0.98	0.005
PDE2A	3	0.39	0.005
PDE2A	4	1.16	0.005
PDE2A	5	-0.38	0.005
PDE2A	6	-0.81	0.005
SAC3D1	1	1.33	0.69
SAC3D1	2	-0.03	0.69
SAC3D1	3	0.73	0.69
SAC3D1	4	0.28	0.69
SAC3D1	5	0.65	0.69
SAC3D1	6	0.75	0.69
DGKQ	1	1.91 (active)	0.705
DGKQ	2	0.95	0.705
DGKQ	3	-0.56	0.705
DGKQ	4	0.46	0.705
DGKQ	5	0.16	0.705
DGKQ	6	0.96	0.705
OR2B3	1	0.63	0.46
OR2B3	2	0.64	0.46
OR2B3	3	-0.39	0.46
OR2B3	4	0.67	0.46
OR2B3	5	-0.62	0.46
OR2B3	6	0.29	0.46
